At least one compound was matched to its structure with a doubt left.
Legend:
HCT116 cells = assay: Cell density-dependent induction of ferroptosis in HCT116 cells (cell death and lipid ROS by flow cytometry); type: cell-based, human; settings: 30 μM erastin; different cell density; cell death 30 h, lipid ROS 24 h
Method: Induction and inhibition of ferroptosis. To induce ferroptosis, cells with different density were seeded in 6-well plates. For cystine-starvation experiments, cells were washed with PBS twice and then cultured in cystine-free medium in the presence of 10% (v/v) dialyzed FBS for the indicated time. The ferroptosis inducing compounds erastin and RSL3 and the ferroptosis inhibitor Ferrostatin-1 were purchased from Sigma-Aldrich (St. Louis, Mo., USA).
(§1) Measurement of cell death, cell viability and lipid peroxidation. Cell death was analyzed by propidium iodide (Invitrogen, Waltham, Mass., USA) or SYTOX Green (Invitrogen) staining followed by microscopy or flow cytometry. For 3D spheroids, cell viability was determined using the CellTiter-Glo® 3D Cell Viability Assay (Promega, Madison, Wis., USA) according to the manufacturer's instructions. Viability was calculated by normalizing ATP levels to spheroids treated with normal full media. […]
To test erastin-induced ferroptosis, HCT116 cells with different cell density were treated with 30 μM erastin and quantification of cell death by propidium iodide (PI) staining followed by flow cytometry (after 30 h of erastin treatment). Lipid ROS production was assessed by C11-BODIPY staining followed by flow cytometry (after 24 h of erastin treatment). […]

MDA-MB-231 spheroids = assay: Erastin treatment of 3D tumor spheroids (SYTOX Green, ATP viability); type: cell-based, human; settings: 15 μM erastin, 30 h
H1650 spheroids = assay: as above; type: cell-based, human; settings: 15 μM erastin, 30 h
[1] = test system: tumor spheroids of HCT116 cells; assay: Erastin-induced cell death in HCT116 tumor spheroids; type: cell-based, human; settings: 15 μM erastin, 30 h
Method: Generation of three-dimensional spheroids. Spheroids were generated by plating tumor cells at 10^3/well into U-bottom Ultra Low Adherence (ULA) 96-well plates (Corning, Tewksbury, Mass., USA). Optimal three-dimensional structures were achieved by centrifugation at 600 g for 5 min followed by addition of 2.5% Matrigel (Corning). Plates were incubated for 72 h at 37° C., 5% CO2, 95% humidity for formation of a single spheroid of cells. Spheroids were then treated with erastin in fresh medium containing Matrigel for the indicated time.
as §1
Tumor spheroids generated from shEcad, shMerlin and shLats1/2 cells were treated with 15 μM erastin with or without 2 μM Fer-1 for 30 h, and dead cells were stained green by SYTOX Green. Cell viability within the tumor spheroids was measured by determining ATP levels. […]

[2] = test system: human malignant mesothelioma cell lines; assay: Erastin-induced ferroptosis in mesothelioma tumor spheroids; type: cell-based; settings: 10 μM erastin, 24 h
MSTO-211H cells = assay: Erastin-induced ferroptosis in MSTO-211H tumor spheroids; type: cell-based, human; settings: 10 μM erastin, 24 h
MEFs = assay: Ferroptosis and lipid ROS in MEFs; type: cell-based, mouse
Method: Measurement of cell death, cell viability and lipid peroxidation. Cell death was analyzed by propidium iodide (Invitrogen, Waltham, Mass., USA) or SYTOX Green (Invitrogen) staining followed by microscopy or flow cytometry. For 3D spheroids, cell viability was determined using the CellTiter-Glo® 3D Cell Viability Assay (Promega, Madison, Wis., USA) according to the manufacturer's instructions. Viability was calculated by normalizing ATP levels to spheroids treated with normal full media. To analyze lipid peroxidation, cells were stained with 5 μM BODIPY-C11 (Invitrogen) for 30 minutes at 37° C. followed by flow cytometric analysis.
Merlin-regulated ferroptosis in cell density dependent manner was also observed in MEFs, which are not of epithelial origin. Cell death of MEFs with different cell density induced by cystine starvation for 12 h was measured by PI staining (FIG. 15A), and flow cytometry (FIG. 15B). The effect of cystine starvation on lipid ROS production in MEFs cells with different cell density (6 h treatment) is also shown in FIG. 15B. […]
MEFs also regulated the activity of YAP at high density in a Merlin-dependent manner. […] The effect of Merlin was assessed by infecting MEFs with shMerlin lentivirus and selected with puromycin. […]

Meso33 cells = assay: Erastin-induced cell death in spheroids of Meso33 cells with Dox-inducible Merlin; type: cell-based, human; settings: 10 μM erastin, 24 h; with versus without Dox

CCOc1ccccc1-n1c(C(C)N2CCN(C(=O)COc3ccc(Cl)cc3)CC2)nc2ccccc2c1=O (stereo not drawn) [erastin]
erastin-induced ferroptosis (cell death, lipid ROS) (HCT116 cells): induces HCT116 human colon cancer cells to undergo ferroptosis in a cell density-dependent manner
cell death in spheroids (SYTOX Green) (MDA-MB-231 spheroids): prominent erastin-induced cell death response
cell viability within spheroids (cellular ATP) (MDA-MB-231 spheroids): significantly reduced cell viability
cell death in spheroids (SYTOX Green) (H1650 spheroids): prominent erastin-induced cell death response
cell viability within spheroids (cellular ATP) (H1650 spheroids): significantly reduced cell viability
erastin-induced cell death in spheroids of shEcad, shMerlin, shLats1/2 cells [1]: enhanced erastin-induced cell death
erastin-induced ferroptosis in spheroids of YAP^S127A-overexpressing cells ([1]; versus parental): sensitized ferroptosis in 3D tumor spheroids
erastin-induced ferroptosis, Merlin-mutant mesothelioma spheroids [2]: sensitive to erastin-induced ferroptosis
erastin-induced ferroptosis, Merlin-wt mesothelioma spheroids [2]: largely resistant
cell viability in spheroids of YAP^S127 mutant cells after erastin (MSTO-211H cells): reduced cell viability
erastin-induced ferroptosis in spheroids of YAP^S127 mutant cells (cell death staining) (MSTO-211H cells): sensitive to erastin-induced ferroptosis
erastin-induced ferroptosis in spheroids of shNcad cells (MSTO-211H cells; versus shNT): sensitized 211H cells to ferroptosis in the 3D tumor spheroid model
erastin-induced cell death and lipid ROS in MEFs at different densities (MEFs; 1 μM erastin, cell death 12 h, lipid ROS 8 h): underwent ferroptosis-mediated cell death (12 h) and enhanced production of lipid ROS (8 h)
erastin-induced cell death and lipid ROS in confluent Merlin RNAi MEFs (MEFs; erastin 1 μM, 12 h): increased cell death and lipid ROS production
erastin-induced cell death in spheroids upon Dox induction of Merlin (Meso33 cells): suppressed the erastin-induced cell death
